The text below walks through data of article PMC12435577.

The chains behind the UniProt entries cited, without tags or fusion partners.
UniProt Q8R4B8: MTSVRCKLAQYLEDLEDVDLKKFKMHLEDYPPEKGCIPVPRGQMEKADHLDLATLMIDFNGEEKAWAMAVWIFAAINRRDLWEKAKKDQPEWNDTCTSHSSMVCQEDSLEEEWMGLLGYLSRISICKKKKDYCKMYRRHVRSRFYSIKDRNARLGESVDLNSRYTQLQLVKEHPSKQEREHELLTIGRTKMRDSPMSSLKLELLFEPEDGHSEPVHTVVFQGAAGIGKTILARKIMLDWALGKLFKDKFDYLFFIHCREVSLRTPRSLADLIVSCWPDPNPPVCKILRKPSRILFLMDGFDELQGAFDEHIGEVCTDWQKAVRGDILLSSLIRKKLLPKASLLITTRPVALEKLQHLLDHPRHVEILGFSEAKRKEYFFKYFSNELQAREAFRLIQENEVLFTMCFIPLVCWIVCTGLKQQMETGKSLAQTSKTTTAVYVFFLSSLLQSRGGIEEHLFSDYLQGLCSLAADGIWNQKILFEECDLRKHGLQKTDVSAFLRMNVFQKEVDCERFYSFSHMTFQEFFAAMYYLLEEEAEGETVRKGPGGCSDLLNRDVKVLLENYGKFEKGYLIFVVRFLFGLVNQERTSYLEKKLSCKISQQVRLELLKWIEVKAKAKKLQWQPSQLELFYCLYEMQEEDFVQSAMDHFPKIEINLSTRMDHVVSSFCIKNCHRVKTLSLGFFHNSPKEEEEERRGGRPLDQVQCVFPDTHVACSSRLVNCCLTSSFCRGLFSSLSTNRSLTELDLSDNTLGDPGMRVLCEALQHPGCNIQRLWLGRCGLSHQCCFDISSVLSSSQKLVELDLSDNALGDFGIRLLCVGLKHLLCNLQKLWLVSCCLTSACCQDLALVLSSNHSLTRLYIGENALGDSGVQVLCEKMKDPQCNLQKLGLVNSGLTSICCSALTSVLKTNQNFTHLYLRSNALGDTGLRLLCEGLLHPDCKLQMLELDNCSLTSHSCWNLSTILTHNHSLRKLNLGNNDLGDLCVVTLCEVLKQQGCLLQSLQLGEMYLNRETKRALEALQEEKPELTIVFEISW
UniProt Q8C3P7: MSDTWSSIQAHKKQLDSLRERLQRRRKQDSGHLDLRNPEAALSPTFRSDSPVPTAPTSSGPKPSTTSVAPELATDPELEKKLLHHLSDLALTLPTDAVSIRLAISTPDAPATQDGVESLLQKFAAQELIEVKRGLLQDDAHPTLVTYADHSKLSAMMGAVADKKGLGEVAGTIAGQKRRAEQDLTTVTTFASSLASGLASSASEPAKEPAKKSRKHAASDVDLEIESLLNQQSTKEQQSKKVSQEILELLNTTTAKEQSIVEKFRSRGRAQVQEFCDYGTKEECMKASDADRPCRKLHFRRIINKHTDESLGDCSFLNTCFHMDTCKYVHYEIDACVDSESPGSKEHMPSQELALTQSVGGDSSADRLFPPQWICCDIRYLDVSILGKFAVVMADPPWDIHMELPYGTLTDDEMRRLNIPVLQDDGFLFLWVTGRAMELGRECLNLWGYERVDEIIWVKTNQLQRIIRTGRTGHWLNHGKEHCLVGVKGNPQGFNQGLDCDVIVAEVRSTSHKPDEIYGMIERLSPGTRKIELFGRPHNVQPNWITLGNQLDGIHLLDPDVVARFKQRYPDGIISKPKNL

Results are given in words; binding and its absence hold for the method and conditions named. Binding seen in cells or lysates may run through a third protein. Some binding calls cover weakened binding; strength is not graded here.

Assay [1] has as its target T1, DLGAP5 (mouse (endogenous in primary hepatocytes and AML12)) (UniProt Q8K4R9).
T1 sequence: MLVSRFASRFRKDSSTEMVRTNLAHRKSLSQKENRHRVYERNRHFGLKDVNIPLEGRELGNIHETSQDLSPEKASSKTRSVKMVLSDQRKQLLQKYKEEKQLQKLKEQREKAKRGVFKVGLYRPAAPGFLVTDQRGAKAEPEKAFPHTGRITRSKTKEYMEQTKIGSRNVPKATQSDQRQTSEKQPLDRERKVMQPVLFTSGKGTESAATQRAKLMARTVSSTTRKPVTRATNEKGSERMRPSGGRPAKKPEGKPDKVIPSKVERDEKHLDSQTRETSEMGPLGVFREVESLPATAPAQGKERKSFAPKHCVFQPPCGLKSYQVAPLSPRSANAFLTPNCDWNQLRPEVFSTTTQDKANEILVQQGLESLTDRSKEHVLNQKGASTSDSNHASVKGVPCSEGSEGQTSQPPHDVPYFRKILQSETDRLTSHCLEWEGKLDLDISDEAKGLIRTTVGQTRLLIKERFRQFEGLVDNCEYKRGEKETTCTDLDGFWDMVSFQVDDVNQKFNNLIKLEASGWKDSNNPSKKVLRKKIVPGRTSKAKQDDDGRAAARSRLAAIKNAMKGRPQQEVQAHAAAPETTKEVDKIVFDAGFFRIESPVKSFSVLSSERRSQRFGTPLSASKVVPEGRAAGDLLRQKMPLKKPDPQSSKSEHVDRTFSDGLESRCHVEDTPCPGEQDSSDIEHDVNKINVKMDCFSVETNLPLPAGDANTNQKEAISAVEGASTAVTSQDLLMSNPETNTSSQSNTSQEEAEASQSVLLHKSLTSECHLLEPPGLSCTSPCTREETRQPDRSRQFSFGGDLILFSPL
The assay can be described thus: co-IP; endogenous proteins in lysates of primary hepatocytes and AML12 cells; Pierce IP Lysis Buffer, precleared with protein A magnetic beads, indicated antibody 2 h at room temperature, Western blot; anti-IgG as control.

In the assay “CASPASE1-CARD (mouse)” the target is T2, CASPASE1-CARD (mouse (from the printed UniProt entry)) (UniProt P29452).
T2 sequence: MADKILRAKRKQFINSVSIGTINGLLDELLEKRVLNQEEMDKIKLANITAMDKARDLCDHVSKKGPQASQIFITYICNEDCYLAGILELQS
Put plainly: co-IP; truncated domain constructs (pcDNA3.1) transfected into primary hepatocytes, Dlgap5-overexpressed and control; Pierce IP Lysis Buffer, protein A magnetic beads, indicated antibody, Western blot. In general terms: In western blotting, separated proteins are transferred to a membrane and probed.

As to “NOD-like receptor family pyrin domain containing 3 (NLRP3) (from UniProt Q8R4B8 1-1033)”, in assay [1], the binding result is recorded as “binds”.
Same read-out and setting: in the case of “methyltransferase-like 3 (METTL3) (from UniProt Q8C3P7 1-580) (enzyme)” it was “binds”.

B1: ASC-CARD (domain or fragment, UniProt Q9EPB4 105-193)
chain: STARTGHFVDQHRQALIARVTEVDGVLDALHGSVLTEGQYQAVRAETTSQDKMRKLFSFVPSWNLTCKDSLLQALKEIHPYLVMDLEQS
Consider B1, for which, in the assay with CASPASE1-CARD (mouse), the binding result is on record as “binds”.
